PubChem BioAssay AID686937 – Drosophila RNAi Screening Center – 2013

Screen: 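Genes whose loss weakens secretory pathway function in fly cells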 (primary screen)
Cells: Drosophila S2 cells expressing secreted horseradish peroxidase
Knock-down reagent: long dsRNA against Drosophila genes
Duration: about 5.5 days (5 days dsRNA, then 12 h reporter induction)
Treatment: reporter expression induced after 5 days of dsRNA, read 12 h later; inducer not stated
Measurement: 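Chemiluminescent measurement of peroxidase in the medium 12 h after reporter induction, following 5 days of dsRNA, given as a z-score per plate; higher means more secretion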
Direction: z-score: higher = more reporter secreted into medium
The deposit covers about 23,000 reagents; this is an unselected part of those with a known target gene and a result. 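Reduced-secretion tags in replicate 1 do not always agree with the z-scores; no criterion for assigning the tags was given.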 Names joined by + are all predicted targets of the reagent. Not all columns of the deposit are shown. Reagent sequences are not shown. The record does not give: the amount of reagent.

gene	amplicon	z-score, replicate 1	z-score, replicate 2
CG8320 + ATPCL	DRSC07147	0.6	0.2
jp (junctophilin)	DRSC02213	0.25	0.3
jp (junctophilin)	DRSC02744	0.25	-0.21
CG13658	DRSC14659	0.28	0.18
CG41099	DRSC21049	0.11	0.2
CG41099	DRSC21051	0.18	0.25
CG15330	DRSC18014	0.31	0.54
CG14410	DRSC19596	0.35	0.52
Rfx	DRSC16820	0.28	0.1
CG9795	DRSC12336	0.67	0.57
CG12766	DRSC08295	0.12	0.32
Obp69a (Odorant-binding protein 69a)	DRSC11247	0.27	0.02
CG9547	DRSC03260	0.27	0.16

Next part, starting with the last 4 of the part before.
gene	amplicon	z-score, replicate 1	z-score, replicate 2
CG9795	DRSC12336	0.67	0.57
CG12766	DRSC08295	0.12	0.32
Obp69a (Odorant-binding protein 69a)	DRSC11247	0.27	0.02
CG9547	DRSC03260	0.27	0.16
CG3984	DRSC15530	0.17	0.55
lncRNA:CR42859 (long non-coding RNA:CR42859)	DRSC00103	-0.39	0.03
CG13876	DRSC08346	0.21	0.22
CG12355	DRSC09381	-2.2	-1.58
CG12355	DRSC09883	-0.03	0.04
Acp65Aa (Adult cuticle protein 65Aa)	DRSC09663	0.2	0.34
CG2124	DRSC18208	0.31	0.47
Uxs (UDP-xylose synthase)	DRSC10941	-1.3	-1.36
Bet3 (Blocked early in transport 3)	DRSC10388	-1.88	-0.89
Shab (Shaker cognate b)	DRSC08013	0.01	0.47
Shab (Shaker cognate b)	DRSC08643	0.33	0.38
Shab (Shaker cognate b)	DRSC08699	-0.29	-0.9
Vps13B (Vacuolar protein sorting 13B)	DRSC15060	0.09	0.22
Eig71Ee (Ecdysone-induced gene 71Ee)	DRSC11152	0.69	0.43
HisRS (Histidyl-tRNA synthetase)	DRSC19986	-1.66	-2.52
CG14864	DRSC14987	0.49	0.6
CG13220	DRSC06342	0.13	0.24
CG13711	DRSC08320	-0.48	-0.52
unc-45 (uncoordinated 45)	DRSC15449	0.21	0.31
CG4375	DRSC00653	0.12	0.31
